No constants are given. Whether binding was seen depends on the method and setting. Binding seen in cells or lysates may run through a third protein. Some results given as binding are weak or reduced against the parent protein; the word gives no strength.
Molecular target: μ-crystallin (mouse (endogenous in mouse striatum)) (UniProt O54983)
Assay: proximity ligation; Duolink PLA on fixed-frozen 20 μm coronal sections of mouse striatum with tdTomato-labelled astrocytes; mouse anti-µ-crystallin with rabbit anti-USP9X or rabbit anti-MAPT; puncta counted in each astrocyte territory; detects native proteins within about 40 nm; negative controls: dorsolateral striatum astrocytes that lack μ-crystallin, and omission of one PLA probe

The chains behind the UniProt entries cited, without tags or fusion partners.
UniProt O54983: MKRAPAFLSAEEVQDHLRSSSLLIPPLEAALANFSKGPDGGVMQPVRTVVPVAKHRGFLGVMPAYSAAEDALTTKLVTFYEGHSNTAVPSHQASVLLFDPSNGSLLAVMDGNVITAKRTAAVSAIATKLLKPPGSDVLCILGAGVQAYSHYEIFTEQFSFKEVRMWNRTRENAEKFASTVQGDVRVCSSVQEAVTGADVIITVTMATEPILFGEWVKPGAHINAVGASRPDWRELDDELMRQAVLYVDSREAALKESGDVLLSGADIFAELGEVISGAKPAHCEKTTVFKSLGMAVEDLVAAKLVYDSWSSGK
UniProt P20357: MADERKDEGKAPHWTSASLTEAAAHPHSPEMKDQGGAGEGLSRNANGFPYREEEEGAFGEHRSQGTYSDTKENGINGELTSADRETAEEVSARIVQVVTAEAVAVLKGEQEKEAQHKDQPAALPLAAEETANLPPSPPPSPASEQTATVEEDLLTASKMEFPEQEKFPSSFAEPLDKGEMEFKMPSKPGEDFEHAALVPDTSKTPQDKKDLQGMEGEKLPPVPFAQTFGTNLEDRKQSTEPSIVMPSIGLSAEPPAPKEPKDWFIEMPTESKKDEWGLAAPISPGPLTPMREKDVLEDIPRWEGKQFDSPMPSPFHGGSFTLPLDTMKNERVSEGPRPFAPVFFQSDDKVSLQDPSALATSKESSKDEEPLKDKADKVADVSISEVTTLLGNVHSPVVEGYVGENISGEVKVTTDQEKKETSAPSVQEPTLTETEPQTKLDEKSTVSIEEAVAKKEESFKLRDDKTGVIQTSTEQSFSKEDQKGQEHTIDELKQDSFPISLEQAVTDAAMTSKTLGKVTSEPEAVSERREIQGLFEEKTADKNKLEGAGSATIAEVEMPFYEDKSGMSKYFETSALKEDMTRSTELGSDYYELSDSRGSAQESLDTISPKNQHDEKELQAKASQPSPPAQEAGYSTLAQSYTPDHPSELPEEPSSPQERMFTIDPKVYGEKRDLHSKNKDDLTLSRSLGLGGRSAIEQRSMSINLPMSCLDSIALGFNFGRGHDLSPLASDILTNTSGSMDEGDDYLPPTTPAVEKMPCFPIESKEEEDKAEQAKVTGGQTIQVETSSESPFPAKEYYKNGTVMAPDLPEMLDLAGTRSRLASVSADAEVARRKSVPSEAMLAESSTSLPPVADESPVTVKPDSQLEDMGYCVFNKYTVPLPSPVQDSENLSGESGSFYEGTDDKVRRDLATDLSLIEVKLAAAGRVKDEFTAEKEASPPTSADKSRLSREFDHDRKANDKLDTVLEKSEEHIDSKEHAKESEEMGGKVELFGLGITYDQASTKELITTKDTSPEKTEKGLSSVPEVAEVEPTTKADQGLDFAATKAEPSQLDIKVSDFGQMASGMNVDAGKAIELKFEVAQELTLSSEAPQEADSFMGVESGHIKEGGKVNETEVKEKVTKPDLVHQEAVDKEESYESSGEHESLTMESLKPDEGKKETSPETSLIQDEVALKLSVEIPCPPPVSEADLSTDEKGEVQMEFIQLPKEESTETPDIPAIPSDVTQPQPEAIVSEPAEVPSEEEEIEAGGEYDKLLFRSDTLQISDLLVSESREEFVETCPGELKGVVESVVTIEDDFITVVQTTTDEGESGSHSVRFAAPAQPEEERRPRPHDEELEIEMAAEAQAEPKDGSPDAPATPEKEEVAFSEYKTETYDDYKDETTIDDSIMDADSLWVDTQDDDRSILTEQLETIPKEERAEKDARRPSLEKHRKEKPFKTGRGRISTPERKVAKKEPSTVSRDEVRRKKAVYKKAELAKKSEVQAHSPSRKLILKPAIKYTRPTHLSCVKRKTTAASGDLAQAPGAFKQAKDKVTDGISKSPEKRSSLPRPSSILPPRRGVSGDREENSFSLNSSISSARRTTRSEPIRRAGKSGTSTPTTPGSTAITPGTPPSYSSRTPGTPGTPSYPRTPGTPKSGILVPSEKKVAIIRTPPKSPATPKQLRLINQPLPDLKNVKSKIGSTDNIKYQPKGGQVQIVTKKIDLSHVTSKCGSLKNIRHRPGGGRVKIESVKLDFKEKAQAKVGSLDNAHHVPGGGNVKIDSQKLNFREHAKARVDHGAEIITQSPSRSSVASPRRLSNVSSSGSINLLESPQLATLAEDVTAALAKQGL
UniProt P70398: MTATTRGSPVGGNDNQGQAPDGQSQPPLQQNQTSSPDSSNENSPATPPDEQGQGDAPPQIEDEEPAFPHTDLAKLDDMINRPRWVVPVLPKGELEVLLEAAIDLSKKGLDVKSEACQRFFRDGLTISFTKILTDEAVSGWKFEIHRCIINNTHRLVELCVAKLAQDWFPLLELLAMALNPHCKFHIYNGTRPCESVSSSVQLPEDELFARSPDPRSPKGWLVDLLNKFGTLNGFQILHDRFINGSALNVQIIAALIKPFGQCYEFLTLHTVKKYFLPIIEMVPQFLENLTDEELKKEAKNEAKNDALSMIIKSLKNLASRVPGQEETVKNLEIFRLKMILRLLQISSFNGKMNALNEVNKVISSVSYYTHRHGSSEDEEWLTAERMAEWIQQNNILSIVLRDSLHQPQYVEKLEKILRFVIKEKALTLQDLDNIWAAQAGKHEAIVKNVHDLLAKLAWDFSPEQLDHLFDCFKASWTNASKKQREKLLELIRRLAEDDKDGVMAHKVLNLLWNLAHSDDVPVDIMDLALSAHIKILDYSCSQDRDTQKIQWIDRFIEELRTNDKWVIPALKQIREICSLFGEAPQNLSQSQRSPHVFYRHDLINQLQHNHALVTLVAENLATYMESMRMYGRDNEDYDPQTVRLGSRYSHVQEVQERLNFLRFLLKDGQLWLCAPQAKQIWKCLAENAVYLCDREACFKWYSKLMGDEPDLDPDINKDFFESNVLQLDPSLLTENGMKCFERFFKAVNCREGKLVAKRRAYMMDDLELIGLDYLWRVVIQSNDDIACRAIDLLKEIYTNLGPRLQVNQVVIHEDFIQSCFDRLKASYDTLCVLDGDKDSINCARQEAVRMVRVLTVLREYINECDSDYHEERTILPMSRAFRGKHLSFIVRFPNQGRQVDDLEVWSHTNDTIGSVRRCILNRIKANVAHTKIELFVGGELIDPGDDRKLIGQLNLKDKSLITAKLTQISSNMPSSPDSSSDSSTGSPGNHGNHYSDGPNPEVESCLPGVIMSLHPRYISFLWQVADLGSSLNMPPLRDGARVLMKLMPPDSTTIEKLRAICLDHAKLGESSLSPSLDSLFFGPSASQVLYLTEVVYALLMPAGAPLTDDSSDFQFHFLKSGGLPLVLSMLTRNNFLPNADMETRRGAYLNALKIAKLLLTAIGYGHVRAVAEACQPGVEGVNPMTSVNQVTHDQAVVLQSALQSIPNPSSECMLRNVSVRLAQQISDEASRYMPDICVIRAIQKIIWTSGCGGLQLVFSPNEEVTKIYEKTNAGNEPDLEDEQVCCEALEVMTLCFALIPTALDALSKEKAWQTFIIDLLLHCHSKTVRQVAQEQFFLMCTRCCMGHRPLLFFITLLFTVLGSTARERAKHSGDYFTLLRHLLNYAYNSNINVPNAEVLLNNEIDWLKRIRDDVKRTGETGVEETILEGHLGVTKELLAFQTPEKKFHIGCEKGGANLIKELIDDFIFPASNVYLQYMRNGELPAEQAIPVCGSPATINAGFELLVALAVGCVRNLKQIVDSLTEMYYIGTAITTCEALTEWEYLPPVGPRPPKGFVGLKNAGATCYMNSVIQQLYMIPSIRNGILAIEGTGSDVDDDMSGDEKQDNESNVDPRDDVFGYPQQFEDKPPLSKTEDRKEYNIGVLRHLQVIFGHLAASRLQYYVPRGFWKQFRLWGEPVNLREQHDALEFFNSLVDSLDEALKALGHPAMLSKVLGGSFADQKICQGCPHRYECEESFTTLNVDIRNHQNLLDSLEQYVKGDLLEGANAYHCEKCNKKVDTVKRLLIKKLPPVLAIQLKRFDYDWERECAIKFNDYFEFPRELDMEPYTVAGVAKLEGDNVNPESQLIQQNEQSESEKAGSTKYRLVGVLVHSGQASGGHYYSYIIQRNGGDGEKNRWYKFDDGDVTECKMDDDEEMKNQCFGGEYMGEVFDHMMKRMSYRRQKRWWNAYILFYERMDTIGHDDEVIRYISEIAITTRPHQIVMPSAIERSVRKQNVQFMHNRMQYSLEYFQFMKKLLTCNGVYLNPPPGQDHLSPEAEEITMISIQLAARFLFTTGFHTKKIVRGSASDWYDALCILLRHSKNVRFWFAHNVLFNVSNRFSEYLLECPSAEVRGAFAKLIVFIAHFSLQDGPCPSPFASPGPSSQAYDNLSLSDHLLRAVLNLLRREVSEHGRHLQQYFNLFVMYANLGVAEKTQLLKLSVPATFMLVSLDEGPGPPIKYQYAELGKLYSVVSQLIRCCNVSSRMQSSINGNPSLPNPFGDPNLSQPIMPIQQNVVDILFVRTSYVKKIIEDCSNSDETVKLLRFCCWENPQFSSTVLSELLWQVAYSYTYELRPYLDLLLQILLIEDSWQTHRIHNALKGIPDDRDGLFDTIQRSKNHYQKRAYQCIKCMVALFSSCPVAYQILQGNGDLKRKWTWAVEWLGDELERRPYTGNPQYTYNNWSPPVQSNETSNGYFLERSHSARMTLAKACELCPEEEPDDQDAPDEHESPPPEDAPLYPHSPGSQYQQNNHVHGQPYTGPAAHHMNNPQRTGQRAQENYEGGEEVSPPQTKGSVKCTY

## MAP2 (from UniProt P20357 1-1828)
  binding: binds

## USP9X (from UniProt P70398 1-2559)
  binding: binds

From PMC10937394
